PMC8295330
Results are given in words; binding and its absence hold for the method and conditions named. In cells and extracts the contact can be indirect. These calls come from enrichment with a bait or labelling near it, and not all partners need be listed. Sequences can lack the tags named with a protein.

Biological target: T1, Flag-tagged PPM1G protein (UniProt O15355)
T1 sequence: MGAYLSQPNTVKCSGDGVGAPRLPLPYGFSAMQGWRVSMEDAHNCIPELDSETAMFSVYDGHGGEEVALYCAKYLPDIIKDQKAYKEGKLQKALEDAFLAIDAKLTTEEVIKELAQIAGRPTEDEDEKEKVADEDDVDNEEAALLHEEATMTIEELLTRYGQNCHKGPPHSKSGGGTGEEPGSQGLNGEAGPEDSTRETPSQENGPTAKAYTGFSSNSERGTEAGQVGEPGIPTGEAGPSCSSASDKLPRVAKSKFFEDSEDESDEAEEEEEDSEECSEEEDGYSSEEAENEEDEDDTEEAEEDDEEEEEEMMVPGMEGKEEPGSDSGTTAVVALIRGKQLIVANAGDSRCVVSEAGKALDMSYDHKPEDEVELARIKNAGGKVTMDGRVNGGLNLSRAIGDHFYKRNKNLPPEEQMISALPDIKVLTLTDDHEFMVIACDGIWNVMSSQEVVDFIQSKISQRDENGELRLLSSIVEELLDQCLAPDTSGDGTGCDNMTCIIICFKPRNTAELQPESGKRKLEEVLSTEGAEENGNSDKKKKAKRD
Assay: affinity purification with mass spectrometry; immunoprecipitation of Flag-tagged PPM1G from cell lysate (20 mM Tris-HCl pH 8.0, 2 mM EDTA, 1% Triton X-100, 150 mM NaCl; washes with 350 mM NaCl), protein G beads, 4 °C, then LC-MS/MS

B1: SRSF3 (protein, UniProt P84103 1-164)
chain: MHRDSCPLDCKVYVGNLGNNGNKTELERAFGYYGPLRSVWVARNPPGFAFVEFEDPRDAADAVRELDGRTLCGCRVRVELSNGEKRSRNRGPPPSWGRRPRDDYRRRSPPPRRRSPRRRSFSRSRSRSLSRDRRRERSLSRERNHKPSRSFSRSRSRSRSNERK
binding: binds
